# Measurements from PubChem BioAssay AID2551 (National Center for Advancing Translational Sciences (NCATS), 2010).
# Protein sequences, listed by entry. Tags and fused reporters are not part of them. Lines headed by an entry give the natural chain unless they say otherwise; changes in a name come on top.
# UniProt P51450: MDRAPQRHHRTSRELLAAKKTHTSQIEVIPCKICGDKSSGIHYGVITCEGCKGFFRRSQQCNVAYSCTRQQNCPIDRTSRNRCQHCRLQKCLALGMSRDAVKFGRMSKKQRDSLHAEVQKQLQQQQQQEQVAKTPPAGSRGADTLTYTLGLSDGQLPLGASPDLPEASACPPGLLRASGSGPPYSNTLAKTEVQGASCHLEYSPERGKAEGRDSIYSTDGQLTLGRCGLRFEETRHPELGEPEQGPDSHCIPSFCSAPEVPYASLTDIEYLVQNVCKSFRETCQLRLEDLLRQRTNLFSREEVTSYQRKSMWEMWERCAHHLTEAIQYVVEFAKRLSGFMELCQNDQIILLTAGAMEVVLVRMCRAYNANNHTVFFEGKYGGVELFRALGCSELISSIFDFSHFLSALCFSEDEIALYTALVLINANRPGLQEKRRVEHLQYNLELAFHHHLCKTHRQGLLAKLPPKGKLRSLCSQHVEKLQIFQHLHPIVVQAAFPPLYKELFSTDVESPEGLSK
# About 17,000 (5.5%) of roughly 310,000 compounds were called active. Inconclusive means that the source gave no clear call. Such entries were picked first, then a sample of the others. Calls come from the whole dose curve; as a rule, active = well fitted inhibition curve with a large enough effect; inconclusive = small, poorly fitted or top-dose-only effect, or effect the other way; inactive = no such curve, though single readings can be large or run the other way. Potencies of inconclusive entries are doubtful fits and often do not repeat.
# Molecular target: Nuclear receptor ROR-gamma (Mus musculus) (UniProt P51450)
# Experiment: qHTS for inhibitors of ROR gamma transcriptional activity; note: nearly all actives have a fitted effect of over 60% in size
# Settings: Drosophila S2 Gal4-RORgamma UAS-luciferase reporter, 20 h; activity change, negative = inhibition: at 53.6 µM (top of the series)
# Summary of the method: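 Luciferase reporter read in Schneider cells carrying Gal4-RORγ (mouse) and UAS-Photinus luciferase; cells given compound 1 h before 700 uM copper sulfate induction, then incubated 20 h at ambient temperature.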
# % is set by controls: 0 for no effect and ±100 for the full control effect; potency is the fitted concentration of half-maximal effect.
SMILES,Potency,"activity change, negative = inhibition"
Cc1ccc(-n2ncc3c(NCc4ccco4)ncnc32)c(C)c1,"inconclusive: 35.5 µM [activator, single point]",–
COc1ccc(NC(=S)N2CCC(C(O)(c3ccccc3)c3ccccc3)CC2)cc1,"inconclusive: 28.2 µM [inhibitor, single point]",–
O=S(=O)(c1ccccc1)N1CCN(Cc2ccccc2C(F)(F)F)CC1,"inconclusive: 6.31 µM [inhibitor, single point]",–
Cc1nnc(N/N=C/c2ccc([N+](=O)[O-])cc2)n1N,"inconclusive: 15.8 µM [inhibitor, single point]",–
CC(=O)c1ccc(-c2c(C3C4C=CCCC4(C)C(=O)N3Cc3ccccc3)ccc3ccccc23)cc1 (stereo unspecified),"inconclusive: 17.8 µM [activator, single point]",–
Cc1oc(CC(C)C)cc1C(=O)NCCCC(=O)O,"inconclusive: 22.4 µM [inhibitor, single point]",–
O=C(Nc1ccc(F)cc1)Nc1ccc2c(c1)OCO2,inactive,–
CCCCCS(=O)(=O)CCCCCCCCCCn1c(-c2ccc(O)cc2)c(C)c2cc(O)ccc21,"inconclusive: 8.91 µM [inhibitor, partial curve]",–
COc1ccc2nc(N3C(=O)/C(=C/c4ccc(Cl)cc4)NC3=S)sc2c1,"inconclusive: 0.0891 µM [inhibitor, full curve]",–
CCn1cc(CN2CCCC(C(=O)Nc3ccc(-c4cscn4)cc3)C2)c(C)n1 (stereo unspecified),inactive,–
N#CC1=C(N)Oc2c(ccc3ccccc23)C1c1ccsc1 (stereo unspecified),inactive,–
Cn1nc(C(C)(C)C)cc1C(=O)NCc1cc(F)cc2c1OCOC2,"inconclusive: 14.1 µM [inhibitor, single point]",–
CSc1nc(N)c(C#N)c(-c2ccc(Cl)cc2)c1C#N,"inconclusive: 25.1 µM [activator, single point]",–
CCCC(=O)N1CCN(c2ccc(NC(=O)c3ccc4c(c3)OCCO4)cc2)CC1,inactive,–
COc1ccc(Cl)cc1NC(=O)CC1S/C(=N/N=C2CCCCCC2)NC1=O (stereo unspecified),active: 3.55 µM,–
c1csc(CSc2nnc3sc4ccccc4n23)c1,"inconclusive: 25.1 µM [activator, single point]",–
CC(=O)c1sc2nc(-c3ccccc3)cc(C)c2c1N,inactive,–
COC(=O)c1cc(NC(=O)c2cc(C(C)(C)C)nn2Cc2ccc(F)cc2)ccc1N1CCOCC1,"inconclusive: 0.794 µM [activator, full curve, poor fit]",–
CN(c1ccccc1)S(=O)(=O)c1cc(C(=O)c2nccn2C)ccc1Cl,–,inactive: -23.8% [at 10 µM]
CCN(CC)S(=O)(=O)c1ccc(NC(=O)COC(=O)c2cc(S(=O)(=O)Nc3ccc(OC)cc3)ccc2O)cc1,"inconclusive: 0.282 µM [activator, full curve, poor fit]",–
C=CCN(CC=C)C(=O)CCc1nnc(CCc2c[nH]c3ccccc23)o1,"inconclusive: 11.2 µM [activator, partial curve, poor fit]",–
CN(C)CCCNC(=O)/C(=C\c1ccc(-c2ccc(Br)cc2)o1)NC(=O)c1ccccc1,"inconclusive: 20 µM [inhibitor, single point]",–
CCOC(=O)c1[nH]c2c(c1C)C(=O)CC(c1ccc(N(C)C)cc1)C2 (stereo unspecified),"inconclusive: 11.2 µM [activator, partial curve]",–

# Random excerpt: 3 entries already listed, in no set order.
SMILES,Potency,"activity change, negative = inhibition"
COc1ccc2nc(N3C(=O)/C(=C/c4ccc(Cl)cc4)NC3=S)sc2c1,"inconclusive: 0.0891 µM [inhibitor, full curve]",–
COc1ccc(NC(=S)N2CCC(C(O)(c3ccccc3)c3ccccc3)CC2)cc1,"inconclusive: 28.2 µM [inhibitor, single point]",–
CCCCCS(=O)(=O)CCCCCCCCCCn1c(-c2ccc(O)cc2)c(C)c2cc(O)ccc21,"inconclusive: 8.91 µM [inhibitor, partial curve]",–

# Following part

SMILES,Potency,"activity change, negative = inhibition"
COc1ccc(/C=C2\SC(=O)N(CCNC(=O)CCS(=O)(=O)c3ccc(C)cc3)C2=O)cc1,inactive,–
Oc1ccc2ccccc2c1C=Nc1ccccc1Br,active: 12.6 µM,–
O=C(O)CSc1cc(C(=O)c2cc(F)ccc2O)cn2c(=O)c3c(-c4ccccc4)csc3nc12,active: 35.5 µM,–
CCOC(=O)Nc1cccc(Nc2ccccc2)c1,"inconclusive: 12.6 µM [activator, partial curve, poor fit]",–
COC(=O)N1CCC2(CCN(C(=O)Nc3cccc(C#N)c3)CC2)CC1,inactive,–
COc1ccc(NC(=S)N/N=C/c2cccn2Cc2ccc(F)cc2)cc1,inactive,–
CNC[C@@H](Cc1ccccc1)NC[C@@H](CC1CCCCC1)NCCCc1ccccc1,"inconclusive: 35.5 µM [inhibitor, single point]",–
O=C1NC(c2ccccc2)=C(c2nc3ccccc3s2)C(c2ccccc2)N1 (stereo unspecified),"inconclusive: 11.2 µM [activator, single point]",–
CC1=CC(C)(C)NC(=S)N1c1ccc(C)cc1C,active: 1.41 µM,–
COc1ccc(N(C(C)C(=O)N/N=C/c2ccc(OC(C)C)cc2)S(C)(=O)=O)cc1 (stereo unspecified),"inconclusive: 0.355 µM [activator, full curve, poor fit]",–
N#Cc1ccc(C(=O)Nc2nnc(-c3ccccn3)o2)cc1,active: 1.26 µM,–
CC(C)c1nnc(NC(=O)CCC(=O)NCCc2ccccc2)s1,inactive,–
Cc1cccc(-c2nc(CN3CCCC(C(=O)NC4CCCC4)C3)c(C)o2)c1 (stereo unspecified),inactive,–
Clc1cc(Cl)c(OCC#CI)cc1Cl,active: 7.08 µM,–
NC(=S)NNc1ccnc2cc(Cl)ccc12,"inconclusive: 10 µM [inhibitor, partial curve]",–
Cc1cccc(C(=O)N/N=C/c2ccoc2)c1,"inconclusive: 11.2 µM [inhibitor, partial curve, poor fit]",–
CCOC(=O)c1sc2nccc(N(C)C)c2c1N=CNOCc1c(F)cccc1Cl,inactive,–
O=C(NC1CCCCC1)C(c1ccc(Cl)cc1)N1CCC2(CC1)OCCO2 (stereo unspecified),inactive,–
O=C(Nc1ccccc1)Nc1ccc(Cl)c(S(=O)(=O)N2CCOCC2)c1,"inconclusive: 11.2 µM [activator, single point]",–
Cc1cccc2sc(NC(=O)CCNS(=O)(=O)c3cccc4nonc34)nc12,"inconclusive: 35.5 µM [activator, single point]",–
CNC(=S)N/N=C/c1c2ccccc2c(Cl)c2ccccc12,active: 4.47 µM,–
O=C(NC(=S)Nc1ccccc1)c1ccc(-c2ccccc2)cc1,active: 3.55 µM,–
CCCCCCOC(=O)c1ccccc1NC(=O)/C=C/C(=O)O,"inconclusive: 20 µM [activator, single point]",–
